The campaign covered roughly 140,000 compounds. About 4,300 (3.1%) were called active. Inconclusive results, whose numbers are uncertain, are shown with a selection of clear calls.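 How the source made its calls: active means readout at or below -70, meaning at least 70% loss of cells showing the perinucleolar compartment, a nuclear body marking cancer cells; inconclusive means readout between -30 and a set limit; inactive means the rest.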
assay: High Content Assay for Compounds that inhibit the Assembly of the Perinucleolar Compartment; conditions: PC3M PTB-GFP, PNC prevalence imaging, 16 h; at 10 µM; active compounds read low;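 further: plate controls were DMSO wells for no effect and camptothecin positive control wells for full effect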
Method in brief: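 Compounds are pinned in duplicate onto adhered PC3M cells stably expressing GFP-tagged PTB and incubated 16 h at 37 C. Cells are then fixed, nuclei stained with Hoechst, and PNC-positive cells counted.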

Compound	activity change (PNC), negative = inhibition
C=CCn1c(C)cc(C(=O)COC(=O)c2ccc3c(c2)NC(=O)CS3)c1C	active: -80.5%
CCOC(=O)N1CCN(CC(=O)c2c(C)[nH]c3ccccc23)CC1	inactive: -18.6%
O=C(NCCC1=CCCCC1)c1ccc(Cl)c(S(=O)(=O)N2CCOCC2)c1	inactive: -18.9%
CCNC(=O)OCCC12CC3CC(CC(C3)C1)C2	inconclusive: -43%
Cc1ccc(-n2ncc3c(NCCCN4CCOCC4)ncnc32)c(C)c1	inconclusive: -60.8%
O=C(O)C1CCCCC1C(=O)Nc1ccccc1Cl (centres undefined)	inactive: 5.48%
Cc1ccccc1NC(=O)c1sc2nc[nH]c(=O)c2c1C	inconclusive: -32.4%
O=C(OCc1c(Cl)cccc1Cl)c1cccnc1Cl	inconclusive: -58.7%
NC(=O)CC[C@@H]1NC(=O)[C@@H]2CCCN2C(=O)c2cc([N+](=O)[O-])cc(I)c2NCCCC[C@@H](C(=O)NC(CC(=O)O)C(N)=O)NC1=O (some centres undefined)	inactive: 51.9%
Cc1ccc(-c2nnc(NCc3nc4ccccc4[nH]3)c3ccccc23)cc1S(=O)(=O)N(C)C	inconclusive: -71.2%
Cc1c(OCc2nn[nH]n2)ccc2c(-c3ccccc3)cc(=O)oc12	inactive: 25.8%
COc1ccc(-c2nc3cnccn3c2Nc2ccc(C)cc2)cc1	inconclusive: -51.2%
O=[N+]([O-])c1ccccc1S(=O)(=O)Oc1ccc(C(=S)N2CCOCC2)cc1	inactive: -20.3%
COc1ccccc1C(=O)N1CCCN(C(=O)c2ccccc2OC)CC1	inconclusive: -34.4%
CCCNC(=O)c1ccc(C2SCC(=O)N2Cc2ccccc2)cc1 (centres undefined)	inconclusive: -47.1%
CCSc1nc2ccccc2n1CCOc1ccccc1	inconclusive: -37.9%
C/C(N)=C(/C#N)C(=O)CSc1nc2ccccc2c(=O)n1-c1ccc(C)c(Cl)c1	inactive: 28.7%
COc1cc2c(cc1OC)C(c1ccc(-c3cc(Cl)ccc3Cl)o1)=NCC2	inconclusive: -58.8%
O=C(Nc1cccc(F)c1)N1CC=C(c2ccc(Cl)cc2)CC1	inconclusive: -66.3%
COc1ccc(/C=N/OCC(=O)NC(c2ccccc2)c2ccccc2)cc1OC	inconclusive: -53.3%
Cn1c(-c2ccc3c(c2)OCO3)cnc1NCc1ccccc1	inactive: -21.3%
O=C(NCc1cccnc1)c1ccc(COc2cccc3ccccc23)o1	inactive: 3.78%
Cc1csc(SCCn2c(N3CCCC3)nc3c2c(=O)[nH]c(=O)n3C)n1	inconclusive: -63.1%

Compound	activity change (PNC), negative = inhibition
O=C(O)C1CCN(S(=O)(=O)/C=C/c2ccccc2)CC1	inconclusive: -35.5%
COC(=O)/C=C\C(=O)Nc1cccc([N+](=O)[O-])c1	inconclusive: -45.9%
O=C(CCCN1C(=O)CCC1=O)Nc1cccc(C(F)(F)F)c1	inconclusive: -40.4%
Cc1cc(C)cc(NC(=O)CSc2ccc(-c3ccco3)nn2)c1	inconclusive: -57.8%
CCC(=O)N1CCc2cc(S(=O)(=O)NCCC(=O)Nc3cc(C)cc(C)c3)ccc21	inconclusive: -37.8%
CC(=O)Nc1sc2c(c1C(c1cccs1)N1CCOCC1)CCCC2 (centres undefined)	inconclusive: -49.9%
N#C/C(C(=O)NCc1ccccc1)=C1/N=C(NC(=O)c2cccs2)c2ccccc21	inactive: 33.6%
Cc1c(C(=O)O)cnc2cc(-c3ccc(Cl)cc3)nn12	inconclusive: -66.5%
N#Cc1ccc(N2C(=O)[C@@H]3C(C(=O)c4ccc5ccccc5n4)=NN[C@@H]3C2=O)cc1	inactive: 30.9%
COc1ccc(/C=N/Nc2ncnc3sc4c(c23)CCCC4)cc1O	inconclusive: -34%
CCOc1ccc(C(=O)C[n+]2ccccc2C)cc1	inconclusive: -48.4%
O=C(N1CCOCC1)N1CCN(S(=O)(=O)N2CCCCC2)CC1	inconclusive: -36.1%
CC(C)c1ccccc1NC(=O)COC(=O)Cc1c[nH]c2ccccc12	inconclusive: -63.2%
O=C(NCc1ccco1)C(c1cccs1)N(C(=O)C1COc2ccccc2O1)c1cccc(O)c1 (centres undefined)	active: -116%
O=C(Cn1cnc2ccccc2c1=O)Nc1cccc(-c2nnc3n2CCCCC3)c1	inconclusive: -48.9%
O=C(CSc1nc2ccccc2c(=O)n1-c1ccc(Cl)cc1)N/N=C/C=C/c1ccccc1[N+](=O)[O-]	inactive: -26.6%
CN(C)CC(C)(C)CNC(=S)Nc1ccc(S(=O)(=O)N2CCOCC2)cc1	inconclusive: -33.6%
Cc1ccc(S(=O)(=O)C2(C(=O)Nc3cccc(F)c3)CC2)cc1	inconclusive: -53.4%
Cc1noc(C)c1CN1C(=O)NC2(CCCCCCC2)C1=O	inconclusive: -32.2%
CCCOC(=O)c1c(NC(=O)CCCn2nc([N+](=O)[O-])c(Cl)c2C)sc(C(=O)OC)c1C	inactive: 20.3%
CCCn1c(C)cc(C(=O)COc2ncnc3sccc23)c1C	inactive: 0.531%
CCC(=O)N1CCN(c2ccc(NC(=O)c3cc4ccccc4o3)cc2)CC1	inactive: 1.51%
COc1ccc(/C=N/NC(=O)CCC(=O)Nc2ccccc2)cc1OC	inconclusive: -39.5%

Compound	activity change (PNC), negative = inhibition
CCCCCOc1ccc(C(=O)NC(CCC)C(=O)O)cc1 (centres undefined)	inconclusive: -37.2%
COc1cccc(CNCCO)c1OCc1ccccc1Cl	inconclusive: -46.1%
CCOC(=O)c1sc(NC(=O)C(C)(C)C)cc1C	inconclusive: -33.5%
Cc1ccc(C2CN=NC23CCc2ccccc2C3=O)cc1 (centres undefined)	inactive: 16.2%
COc1ccc(CNc2nc3c(c(=O)n(Cc4ccc(Br)cc4)c(=O)n3C)n2C)cc1	inconclusive: -63%
CCn1c(SCC(=O)Nc2nccs2)nnc1-c1ccccc1	inconclusive: -75.6%
O=S(=O)(Nc1nc2ccccc2nc1N1CCc2ccccc2C1)c1ccc(Cl)cc1	inactive: 50.7%
CC(=O)N1c2ccc3ccccc3c2C(C)CC12CCCCC2 (centres undefined)	inconclusive: -31.4%
c1ccc(-n2nnnc2SCc2cn3ccccc3n2)cc1	inactive: 34%
Cc1cccc(NC(=O)C2CC(=O)NC(Nc3nc4ccccc4s3)=N2)c1 (centres undefined)	inconclusive: -34.8%
COc1ccccc1NC1=C(N2CCCCC2)C(=O)c2ccccc2C1=O	active: -84.7%
Cc1ccc2nc(NNC(=O)c3ccc(S(=O)(=O)N4CCc5ccccc5C4)cc3)sc2c1	inactive: 41.2%
CCN(CC)C(=O)c1sc(NC(=O)c2ccc3c(c2)OCO3)c(C#N)c1C	inconclusive: -76.4%
C=CCn1c(CSc2nc3ccccc3s2)nnc1SCC(=O)NCc1cccnc1	inconclusive: -67.7%
CCCn1c(=O)c(C(=O)c2ccccc2)nc2ccccc21	inconclusive: -38.2%
COC(=O)c1ccccc1NC(=O)CSc1nnc(Cc2ccc(Cl)cc2)o1	inconclusive: -40.4%
C#CCN1C(=O)S/C(=C/C=C/c2ccc(N(C)C)cc2)C1=O	inconclusive: -48.9%
CCOC(=O)NCc1ccc(S(=O)(=O)Nc2ccc(C)cc2)cc1	inconclusive: -43.7%
O=[N+]([O-])c1ccc(/C=C2\CCC(C3=CCCC3)=C2N2CCOCC2)cc1	inactive: 65.5%
Cc1ccnc(NC(=O)CCC(=O)N(CC(=O)NCc2ccccc2)c2ccc3c(c2)OCO3)c1	inconclusive: -30.9%
CSc1nsc(SCc2ccc(F)cc2)n1	inactive: 7.13%
Cc1ccc(SCC(=O)c2c(C)[nH]c3ccccc23)cc1	inconclusive: -41.7%
CCSc1ccc2nnc(-c3ccc(F)cc3)n2n1	inconclusive: -34.3%

Compound	activity change (PNC), negative = inhibition
CCc1sc(C(=O)NCc2cc(C)n(C)n2)cc1Br	inconclusive: -30.6%
CC(C)COP(=O)(c1ccc(N(C)C)cc1)C(O)c1ccncc1 (centres undefined)	inactive: 38.4%
O=C(c1ccccc1)n1ccn(-c2ccccc2)c1=S	inconclusive: -44.1%
COc1ccc2c(c1OC)C(=O)N1c3ccccc3SC21 (centres undefined)	inconclusive: -43.8%
O=C(/C=C(\c1ccc(Cl)cc1)n1cncn1)c1ccc(Cl)cc1	inactive: -18.5%
O=C(Cn1cnc2ccccc2c1=O)N1CCN(Cc2ccc3c(c2)OCO3)CC1	inconclusive: -36.9%
Cc1ccc(S(=O)(=O)Nc2ccc3nc(C)sc3c2)cc1	inconclusive: -42.4%
O=C(NC(c1ccccc1)C(Cl)Cl)c1ccccc1 (centres undefined)	inconclusive: -44.4%
CCOC(=O)C(C)Sc1nnc(-c2ccccc2O)n1Cc1ccccc1 (centres undefined)	inconclusive: -50.6%
COc1ccc(-n2c(/C=C(\C)O)nc(=O)c3c(C)cc(C)nc32)cc1	inconclusive: -69%
COc1cccc2c1OC[C@@H](CO)[C@H]2N(C)C(=O)Nc1ccc(Cl)cc1	inconclusive: -72.7%
CN(C(=S)NC1=CCS(=O)(=O)C1)C1CCCCC1	inconclusive: -56.5%
S=C(Nc1ccccc1)N1CCCCC1	inactive: -8.95%
COC(=O)c1cccc(NC(=O)c2ccc3c(c2)C(=O)N(CC2CCCO2)C3=O)c1 (centres undefined)	inconclusive: -47.5%
Cc1ccc(NCC(=O)Nc2cccc(S(=O)(=O)N(C)C)c2)c(Cl)c1	inconclusive: -76.7%
Cn1nc(C(C)(C)C)cc1C(=O)Nc1nc2c(s1)C(=O)CC(C)(C)C2	inactive: 7.13%
CC1CN(c2oc(-c3ccco3)nc2C#N)CC(C)O1 (centres undefined)	inconclusive: -64.9%
CSc1ccccc1NC(=O)Nc1cccc(Cl)c1Cl	inconclusive: -32.3%
Cc1ccc(/C=c2\sc3nc(-c4ccccc4Br)nn3c2=O)o1	inconclusive: -46.1%
O/N=C\c1ccc(-c2ccccc2)o1	inconclusive: -55.2%

Rewritten in CSV form: entries from further up.
Compound,"activity change (PNC), negative = inhibition"
CSc1nsc(SCc2ccc(F)cc2)n1,inactive: 7.13%
Cc1ccc(SCC(=O)c2c(C)[nH]c3ccccc23)cc1,inconclusive: -41.7%
CCSc1ccc2nnc(-c3ccc(F)cc3)n2n1,inconclusive: -34.3%
CCc1sc(C(=O)NCc2cc(C)n(C)n2)cc1Br,inconclusive: -30.6%
CC(C)COP(=O)(c1ccc(N(C)C)cc1)C(O)c1ccncc1 (centres undefined),inactive: 38.4%
O=C(c1ccccc1)n1ccn(-c2ccccc2)c1=S,inconclusive: -44.1%
COc1ccc2c(c1OC)C(=O)N1c3ccccc3SC21 (centres undefined),inconclusive: -43.8%
O=C(/C=C(\c1ccc(Cl)cc1)n1cncn1)c1ccc(Cl)cc1,inactive: -18.5%
O=C(NC(c1ccccc1)C(Cl)Cl)c1ccccc1 (centres undefined),inconclusive: -44.4%
CCOC(=O)C(C)Sc1nnc(-c2ccccc2O)n1Cc1ccccc1 (centres undefined),inconclusive: -50.6%
COc1ccc(-n2c(/C=C(\C)O)nc(=O)c3c(C)cc(C)nc32)cc1,inconclusive: -69%
COc1cccc2c1OC[C@@H](CO)[C@H]2N(C)C(=O)Nc1ccc(Cl)cc1,inconclusive: -72.7%
CN(C(=S)NC1=CCS(=O)(=O)C1)C1CCCCC1,inconclusive: -56.5%
S=C(Nc1ccccc1)N1CCCCC1,inactive: -8.95%
COC(=O)c1cccc(NC(=O)c2ccc3c(c2)C(=O)N(CC2CCCO2)C3=O)c1 (centres undefined),inconclusive: -47.5%
Cc1ccc(NCC(=O)Nc2cccc(S(=O)(=O)N(C)C)c2)c(Cl)c1,inconclusive: -76.7%
Cn1nc(C(C)(C)C)cc1C(=O)Nc1nc2c(s1)C(=O)CC(C)(C)C2,inactive: 7.13%
CC1CN(c2oc(-c3ccco3)nc2C#N)CC(C)O1 (centres undefined),inconclusive: -64.9%
CSc1ccccc1NC(=O)Nc1cccc(Cl)c1Cl,inconclusive: -32.3%
O/N=C\c1ccc(-c2ccccc2)o1,inconclusive: -55.2%
